Paper PMC13248759
Results are given in words; binding and its absence hold for the method and conditions named. Binding seen in cells or lysates may run through a third protein. A yes stands for co-enrichment or nearness to the bait. Other partners may have been found. Tags and fused reporters may be left off the sequences shown.

Sequences of proteins named here, by UniProt entry; tags and fusion partners are left off.
UniProt Q9Y5X1: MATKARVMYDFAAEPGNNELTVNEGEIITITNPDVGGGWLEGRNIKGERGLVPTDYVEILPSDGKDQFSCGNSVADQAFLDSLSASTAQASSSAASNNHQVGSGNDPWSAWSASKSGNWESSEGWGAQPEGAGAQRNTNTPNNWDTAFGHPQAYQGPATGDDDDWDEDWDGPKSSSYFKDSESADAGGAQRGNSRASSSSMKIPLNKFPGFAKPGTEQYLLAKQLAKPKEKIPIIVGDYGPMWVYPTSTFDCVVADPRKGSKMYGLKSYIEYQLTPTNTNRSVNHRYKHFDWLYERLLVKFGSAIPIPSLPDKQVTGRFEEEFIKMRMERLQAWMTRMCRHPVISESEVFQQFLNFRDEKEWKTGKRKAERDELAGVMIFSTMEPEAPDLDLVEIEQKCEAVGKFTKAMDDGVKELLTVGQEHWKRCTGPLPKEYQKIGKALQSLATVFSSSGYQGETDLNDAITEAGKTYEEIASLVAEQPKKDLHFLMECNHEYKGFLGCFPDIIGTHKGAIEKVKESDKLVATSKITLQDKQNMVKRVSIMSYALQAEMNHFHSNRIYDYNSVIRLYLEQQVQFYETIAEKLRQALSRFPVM

Target: T1, NUMB-1-FLAG (human) (UniProt P49757)
T1 sequence: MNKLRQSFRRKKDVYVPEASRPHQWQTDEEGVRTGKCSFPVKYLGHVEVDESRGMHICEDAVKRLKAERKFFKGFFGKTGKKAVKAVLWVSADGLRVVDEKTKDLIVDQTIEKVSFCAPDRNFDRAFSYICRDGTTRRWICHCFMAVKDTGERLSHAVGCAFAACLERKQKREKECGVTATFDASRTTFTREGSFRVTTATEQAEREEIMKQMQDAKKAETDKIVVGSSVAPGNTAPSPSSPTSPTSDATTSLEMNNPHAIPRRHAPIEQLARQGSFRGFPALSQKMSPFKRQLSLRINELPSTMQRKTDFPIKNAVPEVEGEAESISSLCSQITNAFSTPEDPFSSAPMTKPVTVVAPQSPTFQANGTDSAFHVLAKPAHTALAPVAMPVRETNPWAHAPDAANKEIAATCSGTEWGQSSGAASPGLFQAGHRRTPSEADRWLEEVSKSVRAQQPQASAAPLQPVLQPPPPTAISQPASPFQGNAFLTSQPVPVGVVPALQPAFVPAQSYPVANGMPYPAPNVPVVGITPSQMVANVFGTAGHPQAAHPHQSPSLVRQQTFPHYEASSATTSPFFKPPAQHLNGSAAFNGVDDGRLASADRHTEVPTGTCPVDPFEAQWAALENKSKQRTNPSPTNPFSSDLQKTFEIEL
Assay: affinity purification with mass spectrometry; lysates of HEK-293 cells transfected with FLAG-tagged NUMB isoforms 1-4, anti-FLAG immunoprecipitation, gel lanes digested and analysed by LC-MS/MS

## sorting nexin 9 (SNX9), endogenous (from UniProt Q9Y5X1 1-595)
  binding: binds
